Data reported in article PMC7979726 (Nature Communications, 2021).
These are yes or no findings as the source states them, for the method shown.

By UniProt entry, the sequences of proteins in these tests, tags left out. Where a name states a change or a piece, a line headed by the entry shows the natural chain unless it says otherwise.
UniProt P54784: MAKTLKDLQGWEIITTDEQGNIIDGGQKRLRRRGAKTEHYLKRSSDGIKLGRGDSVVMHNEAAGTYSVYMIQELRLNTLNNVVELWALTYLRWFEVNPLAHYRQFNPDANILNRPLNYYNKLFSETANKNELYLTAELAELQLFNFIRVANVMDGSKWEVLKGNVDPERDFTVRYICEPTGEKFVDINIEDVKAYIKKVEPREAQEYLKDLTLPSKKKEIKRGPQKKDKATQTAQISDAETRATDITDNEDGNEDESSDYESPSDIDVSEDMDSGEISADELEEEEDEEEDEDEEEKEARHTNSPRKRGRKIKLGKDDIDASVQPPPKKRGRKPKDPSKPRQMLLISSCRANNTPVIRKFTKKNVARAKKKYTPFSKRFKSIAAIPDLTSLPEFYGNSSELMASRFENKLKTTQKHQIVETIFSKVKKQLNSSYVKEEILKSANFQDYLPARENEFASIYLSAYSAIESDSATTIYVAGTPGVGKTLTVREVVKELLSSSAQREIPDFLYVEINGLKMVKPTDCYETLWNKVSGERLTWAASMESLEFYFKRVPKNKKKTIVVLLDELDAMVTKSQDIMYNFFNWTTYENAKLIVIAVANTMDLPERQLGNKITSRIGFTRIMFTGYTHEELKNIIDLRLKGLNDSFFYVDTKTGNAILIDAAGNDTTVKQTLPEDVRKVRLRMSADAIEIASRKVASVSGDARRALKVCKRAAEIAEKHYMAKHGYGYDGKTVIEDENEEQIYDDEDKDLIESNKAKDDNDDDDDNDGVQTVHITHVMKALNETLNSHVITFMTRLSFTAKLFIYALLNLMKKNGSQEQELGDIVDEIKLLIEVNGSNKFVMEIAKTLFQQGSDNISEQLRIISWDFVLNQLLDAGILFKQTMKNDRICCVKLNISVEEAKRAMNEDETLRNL
UniProt P53091: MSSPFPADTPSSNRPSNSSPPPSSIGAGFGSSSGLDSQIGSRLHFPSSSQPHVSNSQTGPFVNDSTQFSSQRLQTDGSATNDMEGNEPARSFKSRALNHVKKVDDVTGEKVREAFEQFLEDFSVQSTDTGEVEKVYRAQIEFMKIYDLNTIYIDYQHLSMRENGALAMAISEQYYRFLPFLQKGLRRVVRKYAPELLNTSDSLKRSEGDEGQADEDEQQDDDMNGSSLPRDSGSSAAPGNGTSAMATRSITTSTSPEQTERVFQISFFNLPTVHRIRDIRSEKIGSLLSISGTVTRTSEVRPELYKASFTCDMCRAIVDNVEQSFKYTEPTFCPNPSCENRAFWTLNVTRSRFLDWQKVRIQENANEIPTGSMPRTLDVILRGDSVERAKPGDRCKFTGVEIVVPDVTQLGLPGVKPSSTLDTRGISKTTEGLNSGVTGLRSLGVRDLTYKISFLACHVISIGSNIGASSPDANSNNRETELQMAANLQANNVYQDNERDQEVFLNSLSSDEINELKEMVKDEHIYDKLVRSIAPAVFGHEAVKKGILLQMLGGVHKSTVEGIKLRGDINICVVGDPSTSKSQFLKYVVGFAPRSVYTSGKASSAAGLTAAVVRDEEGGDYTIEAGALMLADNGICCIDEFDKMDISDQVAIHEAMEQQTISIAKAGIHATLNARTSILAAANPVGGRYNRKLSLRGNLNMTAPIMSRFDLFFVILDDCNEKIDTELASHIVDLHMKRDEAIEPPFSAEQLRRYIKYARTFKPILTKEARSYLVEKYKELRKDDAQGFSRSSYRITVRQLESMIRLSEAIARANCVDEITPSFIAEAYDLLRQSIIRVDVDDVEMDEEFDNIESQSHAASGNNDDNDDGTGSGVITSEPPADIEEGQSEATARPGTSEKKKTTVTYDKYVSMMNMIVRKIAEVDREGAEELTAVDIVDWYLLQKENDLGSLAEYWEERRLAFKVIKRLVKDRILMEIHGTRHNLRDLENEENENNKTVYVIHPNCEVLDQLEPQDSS

Molecular target: ORC-Cdc6 complex bound to duplex DNA (OC) (S. cerevisiae) (UniProt P54784)
Test: pull-down; preRC recruitment assay: OC (50 nM ORC, 50 nM Cdc6) formed on ARS305 DNA on streptavidin magnetic beads; one Mcm subunit or Cdt1 at 250 nM with or without Mcm3; ATPγS, 30 °C, 20 min, low salt washes (300 mM KOAc); SDS-PAGE; both purified

- binding: no binding (tested: 250 nM)
Substance: Mcm6 (from UniProt P53091 1-1017)
